For at least one compound, name, drawing or mass did not settle the structure.
Tested on: invariant NK T cells
Test: 6B11 FACS sort or magnetic bead immunoaffinity purification of PBMC followed by expansion
Assay type: cell-based, human
Conditions: addition during expansion, at the concentrations tested (FIGS. 12-17)
Protocol: Starting with PBMC in which approximately 0.05% of the lymphocytes in PBMC are invariant T cells, approximately 5-30% of the purified and expanded cells were invariant T cells.
PBMC or another tissue source is blocked with autologous serum at 4° C. An antibody reactive with invariant T cells (e.g., 6B11 or 3A6 antibody) is added at a ratio of about 1-10 μg antibody/10^7-8 PBMC and incubated for 20 minutes at 4° C. The antibody used in this method may be directly labeled with a conjugate such as FITC or biotin, or the antibody may be indirectly labeled with second reagent (e.g., anti-IgG-Fluorochrome or streptavidin-Fluorochrome). One or more other antibodies labeled with different fluorophores may also be added (FIGS. 7A-7C and 9). The solution of cells and antibodies is then washed using PBS or any other physiological buffer to remove unbound antibody.
If desired, the settings of the FACS cell sorter may be adjusted using either a positive (e.g., general anti-T cell antibody) or negative control antibody. The sample of interest may be analyzed at a rate of approximately 100 million cells per hour using a high speed FACS sorter (e.g., ‘MoFlo’FACS sorter). […] During or subsequent to expansion (e.g., 2-4 weeks after expansion has begun), the T cells may be phenotypically analyzed by FACS. […]

Question: `C[C@@H]1C[C@H]2[C@@H]3CCC4=CC(=O)C=C[C@]4(C)[C@@]3(F)[C@@H](O)C[C@]2(C)[C@@]1(O)C(=O)CO` [dexamethasone, reference compound] was tested. Which “Purity of invariant T cells” value did it give?
Answer: Its value is “did not increase the purity of invariant T cells”.

From patent publication US8138314B2, “Compositions and methods of monoclonal and polyclonal antibodies specific for T cell subpopulations” (Beth Israel Deaconess Medical Center, Inc., priority 2000, dated 2012)
